Test results as given in the supplement of paper PMC8728848.
The other results are listed elsewhere or left out.

Columns and labels:
Assay in all cases: glycan array binding signal (z-score within array); higher = stronger binding
Details in all cases: glycan notation: IUPAC condensed, linker removed
[1] = biological target: Gal(a1-4)Gal(b1-4)GlcNAc(b1-2)Man(a1-3)[Gal(a1-4)Gal(b1-4)GlcNAc(b1-2)Man(a1-6)]Man(b1-4)GlcNAc(b1-4)GlcNAc
Summary of the method: (§1)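 Negative Z-scores can be read as non-binding. The Z-score is calculated within each array and then averaged across arrays of one protein sequence at different concentrations or buffers and across linkers. Arrays, 3228 in all, were curated from the Consortium for Functional Glycomics database and kept only where the protein sequence was available.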

[2] = biological target: Gal(a1-4)Gal(b1-4)GlcNAc(b1-3)Gal(b1-4)Glc
Summary of the method: as §1

Gal(a1-4)GlcNAc = biological target: Gal(a1-4)GlcNAc
Summary of the method: as §1

Gal(a1-6)Glc = biological target: Gal(a1-6)Glc
Summary of the method: as §1

Gal(b1-2)Gal = biological target: Gal(b1-2)Gal
Summary of the method: as §1

Gal(b1-3)Gal = biological target: Gal(b1-3)Gal
Summary of the method: as §1

Gal(b1-3)Gal(b1-4)GlcNAc = biological target: Gal(b1-3)Gal(b1-4)GlcNAc
Summary of the method: as §1

[3] = biological target: Gal(b1-3)Gal(b1-4)GlcNAc(b1-2)Man(a1-3)[Gal(b1-3)Gal(b1-4)GlcNAc(b1-2)Man(a1-6)]Man(b1-4)GlcNAc(b1-4)GlcNAc
Summary of the method: as §1

Gal(b1-3)GalNAc = biological target: Gal(b1-3)GalNAc
Summary of the method: as §1

[4] = biological target: Gal(b1-3)GalNAc(a1-3)[Fuc(a1-2)]Gal(b1-4)Glc
Summary of the method: as §1

[5] = biological target: Gal(b1-3)GalNAc(a1-3)[Fuc(a1-2)]Gal(b1-4)GlcNAc
Summary of the method: as §1

[6] = biological target: Gal(b1-3)GalNAc(b1-3)Gal(a1-4)Gal(b1-4)Glc
Summary of the method: as §1

[7] = biological target: Gal(b1-3)GalNAc(b1-4)Gal(b1-4)Glc
Summary of the method: as §1

[8] = biological target: Gal(b1-3)GalNAc(b1-4)[Neu5Ac(a2-3)]Gal(b1-4)Glc
Summary of the method: as §1

Gal(b1-3)GlcNAc = biological target: Gal(b1-3)GlcNAc
Summary of the method: as §1

[9] = biological target: Gal(b1-3)GlcNAc(a1-6)Gal(b1-4)GlcNAc
Summary of the method: as §1

[10] = biological target: Gal(b1-3)GlcNAc(b1-2)Man(a1-3)[Gal(b1-3)GlcNAc(b1-2)Man(a1-6)]Man(b1-4)GlcNAc(b1-4)GlcNAc
Summary of the method: as §1

[11] = biological target: Gal(b1-3)GlcNAc(b1-2)Man(a1-3)[Gal(b1-3)GlcNAc(b1-2)Man(a1-6)]Man(b1-4)GlcNAc(b1-4)[Fuc(a1-6)]GlcNAc
Summary of the method: as §1

[12] = biological target: Gal(b1-3)GlcNAc(b1-2)[Gal(b1-3)GlcNAc(b1-6)]Man(a1-6)[Gal(b1-3)GlcNAc(b1-2)Man(a1-3)]Man(b1-4)GlcNAc(b1-4)GlcNAc
Summary of the method: as §1

[13] = biological target: Gal(b1-3)GlcNAc(b1-3)Gal(b1-3)GlcNAc
Summary of the method: as §1

[14] = biological target: Gal(b1-3)GlcNAc(b1-3)Gal(b1-4)Glc
Summary of the method: as §1

[15] = biological target: Gal(b1-3)GlcNAc(b1-3)Gal(b1-4)GlcNAc
Summary of the method: as §1

[16] = biological target: Gal(b1-3)GlcNAc(b1-3)Gal(b1-4)GlcNAc(b1-6)[Gal(b1-3)GlcNAc(b1-3)]Gal(b1-4)Glc
Summary of the method: as §1

[17] = biological target: Gal(b1-3)GlcNAc(b1-3)Gal(b1-4)[Fuc(a1-3)]GlcNAc(b1-6)[Gal(b1-3)GlcNAc(b1-3)]Gal(b1-4)Glc
Summary of the method: as §1

[18] = biological target: Gal(b1-3)GlcNAc(b1-3)GalNAc
Summary of the method: as §1

[19] = biological target: Gal(b1-3)GlcNAc(b1-6)Gal(b1-4)GlcNAc
Summary of the method: as §1

[20] = biological target: Gal(b1-3)[Fuc(a1-4)]GlcNAc
Summary of the method: as §1

[21] = biological target: Gal(b1-3)[Fuc(a1-4)]GlcNAc(b1-2)Man(a1-3)[Gal(b1-3)[Fuc(a1-4)]GlcNAc(b1-2)Man(a1-6)]Man(b1-4)GlcNAc(b1-4)GlcNAc
Summary of the method: as §1

[22] = biological target: Gal(b1-3)[Fuc(a1-4)]GlcNAc(b1-2)Man(a1-3)[Gal(b1-3)[Fuc(a1-4)]GlcNAc(b1-2)Man(a1-6)]Man(b1-4)GlcNAc(b1-4)[Fuc(a1-6)]GlcNAc
Summary of the method: as §1

[23] = biological target: Gal(b1-3)[Fuc(a1-4)]GlcNAc(b1-3)Gal(b1-3)[Fuc(a1-4)]GlcNAc
Summary of the method: as §1

[24] = biological target: Gal(b1-3)[Fuc(a1-4)]GlcNAc(b1-3)Gal(b1-4)GlcNAc
Summary of the method: as §1

[25] = biological target: Gal(b1-3)[Fuc(a1-4)]GlcNAc(b1-3)Gal(b1-4)[Fuc(a1-3)]GlcNAc
Summary of the method: as §1

[26] = biological target: Gal(b1-3)[GlcNAc(b1-6)]GalNAc
Summary of the method: as §1

[27] = biological target: Gal(b1-3)[Neu5Ac(a2-6)]GalNAc
Summary of the method: as §1

[28] = biological target: Gal(b1-3)[Neu5Ac(a2-6)]GlcNAc(b1-6)Gal(b1-4)Glc
Summary of the method: as §1

[29] = biological target: Gal(b1-3)[Neu5Ac(b2-6)]GalNAc
Summary of the method: as §1

Gal(b1-4)Gal = biological target: Gal(b1-4)Gal
Summary of the method: as §1

B1: MFG-E8 (Homo sapiens), Q08431 (protein)
chain: MPRPRLLAALCGALLCAPSLLVALDICSKNPCHNGGLCEEISQEVRGDVFPSYTCTCLKGYAGNHCETKCVEPLGLENGNIANSQIAASSVRVTFLGLQHWVPELARLNRAGMVNAWTPSSNDDNPWIQVNLLRRMWVTGVVTQGASRLASHEYLKAFKVAYSLNGHEFDFIHDVNKKHKEFVGNWNKNAVHVNLFETPVEAQYVRLYPTSCHTACTLRFELLGCELNGCANPLGLKNNSIPDKQITASSSYKTWGLHLFSWNPSYARLDKQGNFNAWVAGSYGNDQWLQVDLGSSKEVTGIITQGARNFGSVQFVASYKVAYSNDSANWTEYQDPRTGSSKIFPGNWDNHSHKKNLFETPILARYVRILPVAWHNRIALRLELLGC
- glycan array binding signal (z-score) [1]: -0.735
- glycan array binding signal (z-score) [2]: 0.311
- glycan array binding signal (z-score) (Gal(a1-4)GlcNAc): -0.712
- glycan array binding signal (z-score) (Gal(a1-6)Glc): 0.113
- glycan array binding signal (z-score) (Gal(b1-2)Gal): -0.467
- glycan array binding signal (z-score) (Gal(b1-3)Gal): -0.707
- glycan array binding signal (z-score) (Gal(b1-3)Gal(b1-4)GlcNAc): -0.085
- glycan array binding signal (z-score) [3]: 0.095
- glycan array binding signal (z-score) (Gal(b1-3)GalNAc): -0.701
- glycan array binding signal (z-score) [4]: -0.317
- glycan array binding signal (z-score) [5]: -0.63
- glycan array binding signal (z-score) [6]: -0.572
- glycan array binding signal (z-score) [7]: -0.181
- glycan array binding signal (z-score) [8]: -0.7
- glycan array binding signal (z-score) (Gal(b1-3)GlcNAc): -0.494
- glycan array binding signal (z-score) [9]: -0.245
- glycan array binding signal (z-score) [10]: 1.13
- glycan array binding signal (z-score) [11]: -0.504
- glycan array binding signal (z-score) [12]: 0.101
- glycan array binding signal (z-score) [13]: -0.127
- glycan array binding signal (z-score) [14]: -0.396
- glycan array binding signal (z-score) [15]: 0.204
- glycan array binding signal (z-score) [16]: 2.38
- glycan array binding signal (z-score) [17]: 1.03
- glycan array binding signal (z-score) [18]: -0.341
- glycan array binding signal (z-score) [19]: -0.672
- glycan array binding signal (z-score) [20]: -0.727
- glycan array binding signal (z-score) [21]: -0.347
- glycan array binding signal (z-score) [22]: -0.613
- glycan array binding signal (z-score) [23]: -0.395
- glycan array binding signal (z-score) [24]: -0.074
- glycan array binding signal (z-score) [25]: -0.366
- glycan array binding signal (z-score) [26]: -0.239
- glycan array binding signal (z-score) [27]: 0.87
- glycan array binding signal (z-score) [28]: 2.13
- glycan array binding signal (z-score) [29]: 0.07
- glycan array binding signal (z-score) (Gal(b1-4)Gal): -0.56
